Results taken from PubChem BioAssay AID330 (DTP/NCI, 2004).
The list shows only some results of the screen, not a fair sample: it gathers tests that were run many times, whatever their T/C, doses with no T/C, and many T/C values between a quarter and a half above the control. Other doses and runs of a compound stand elsewhere. T/C is the treated group as % of the vehicle group. Some entries give survivors of the animals treated and no T/C: the source holds a T/C of zero for them, seemingly a mark for toxic or unscored doses. Some doses without a T/C left all or most animals alive at the check, yet need not have been tolerated: survival well below the control is almost never listed, so the zero probably covers shortened survival too. Counts of survivors are from the toxicity check (mostly the fifth day) where no day follows; animals may have died later. Schedule codes are those of the source, taken here to give the interval after Q, in days (D) or hours (H), and the number of doses after X. For survival time, the PubChem record calls one and a half times the control and up active, and a quarter to a half above the control has no call in these data; cut-offs in other NCI protocols can differ. Some entries were tested several times; their values stand side by side, smallest first. Some T/C values are followed by the survivors on the day toxicity was checked, most often the fifth; where none is given, no animal had died by that day.

Tested on: P388 leukemia ip, CD2F1 mice, survival T/C
Assay: NCI In Vivo Anticancer Drug Screen. Data for tumor model P388 Leukemia (intraperitoneal) in CD2F1 (CDF1) mice
Conditions: T/C endpoint: median survival time, higher T/C = longer survival
[1] = dose: 50.0 micrograms/kg/injection, schedule: Q01DX005 (ip), vehicle: Klucel (hydroxypropylcellulose) (HPC)
[2] = dose: 200.0 mg/kg/injection, schedule: Q01DX009 (ip), vehicle: Klucel (hydroxypropylcellulose) (HPC)
[3] = dose: 200.0 mg/kg/injection, schedule: Q01DX005 (ip), vehicle: Klucel (hydroxypropylcellulose) (HPC)
[4] = dose: 200.0 mg/kg/injection, schedule: Q01DX009 (ip), vehicle: saline with Tween-80
[5] = dose: 50.0 mg/kg/injection, schedule: Q01DX009 (ip), vehicle: saline with Tween-80

For `C=C1C[C@](OC)([C@H](O)C(=O)N[C@@H](OC)[C@@H]2C[C@@H](O)C(C)(C)[C@@H](C[C@@H](COC)OC)O2)O[C@H](C)[C@@H]1C`, the T/C (dose: 6.25 micrograms/kg/injection, schedule: Q01DX005 (ip), vehicle: Klucel (hydroxypropylcellulose) (HPC)) was 142 % of control, the T/C (dose: 12.5 micrograms/kg/injection, schedule: Q01DX005 (ip), vehicle: Klucel (hydroxypropylcellulose) (HPC)) was 126 % of control and the survivor count (dose: 25.0 micrograms/kg/injection, schedule: Q01DX005 (ip), vehicle: Klucel (hydroxypropylcellulose) (HPC)) was 6 of 6. For the same molecule, the T/C [1] was 147 % of control, the survivor count [1] was 5 of 6 and the survivor count (dose: 100.0 micrograms/kg/injection, schedule: Q01DX005 (ip), vehicle: Klucel (hydroxypropylcellulose) (HPC)) was 0 of 6. For the same molecule, the survivor count (dose: 200.0 micrograms/kg/injection, schedule: Q01DX005 (ip), vehicle: Klucel (hydroxypropylcellulose) (HPC)) was 0 of 6.

In the case of `Nc1c(O)c(S(=O)(=O)O)c(O)c2c1C(=O)c1ccccc1C2=O`, the survivor count (dose: 240.0 mg/kg/injection, schedule: Q01DX005 (ip), vehicle: saline with Tween-80) is reported as 0 of 6.

With `FC(F)(F)C1(C(F)(F)F)[O][Sb]([c]2ccccc2)([c]2ccccc2)([c]2ccccc2)[O]1` the survivor count [2] was 1 of 6.

For `C=C1C(C)C2C(Cc3ccccc3)NC(=O)C23C(OC(C)=O)/C=C/C(C)(O)CC(C)C/C=C/C3C1O` (centres undefined), the T/C (dose: 12.5 mg/kg/injection, schedule: Q01DX009 (ip), vehicle: Klucel (hydroxypropylcellulose) (HPC)) was 132 % of control, the T/C (dose: 12.5 mg/kg/injection, schedule: Q01DX009 (ip), vehicle: saline with Tween-80) was 138 % of control [4 of 6 alive] and the survivor count (dose: 25.0 mg/kg/injection, schedule: Q01DX009 (ip), vehicle: Klucel (hydroxypropylcellulose) (HPC)) was 1 of 6. For the same molecule, the survivor count (dose: 25.0 mg/kg/injection, schedule: Q01DX009 (ip), vehicle: saline with Tween-80) was 1 of 6 and the survivor count (dose: 50.0 mg/kg/injection, schedule: Q01DX009 (ip), vehicle: Klucel (hydroxypropylcellulose) (HPC)) was 0 of 6.

With `COC1/C=C\OC2(C)Oc3c(C)c(O)c4c(O)c(c5[nH]c(-c6ccccc6)nc5c4c3C2=O)NC(=O)/C(C)=C\C=C\C(C)C(O)C(C)C(O)C(C)C(OC(C)=O)C1C` (centres undefined) the survivor count [2] was 0 of 6.

With `COc1ccc2[nH]c3c(c2c1)CNCC3` the survivor count (dose: 400.0 mg/kg/injection, schedule: Q01DX009 (ip), vehicle: saline) was 1 of 6.

With `CCN(CC)c1ccc(NC(C(=O)c2ccccc2)c2ccccc2)cc1` (centres undefined) the survivor count (dose: 25.0 mg/kg/injection, schedule: Q01DX005 (ip), vehicle: Klucel (hydroxypropylcellulose) (HPC)) was 0 of 5, the survivor count (dose: 50.0 mg/kg/injection, schedule: Q01DX005 (ip), vehicle: Klucel (hydroxypropylcellulose) (HPC)) was 0 of 5 and the survivor count (dose: 100.0 mg/kg/injection, schedule: Q01DX005 (ip), vehicle: Klucel (hydroxypropylcellulose) (HPC)) was 0 of 5. For the same molecule, the survivor count [3] was 0 of 5.

With `CCOC(=O)/C=C/C(=O)N1CCN(C(=O)/C=C/C(=O)OCC)C(C)C1` (centres undefined) the T/C [3] was 125 and 126 % of control and the T/C (dose: 300.0 mg/kg/injection, schedule: Q01DX005 (ip), vehicle: Klucel (hydroxypropylcellulose) (HPC)) was 130 % of control.

With `O=C1Oc2ccc3ccccc3c2CC1C(=O)c1ccc(Cl)cc1` (centres undefined) the survivor count [4] was 6 of 6.

`CC(C)=CCC1=CC(=O)C(CC=C(C)C)=CC1=O` was tested, and the survivor count [5] was 4 of 6, the survivor count (dose: 100.0 mg/kg/injection, schedule: Q01DX009 (ip), vehicle: saline with Tween-80) was 1 of 6 and the survivor count [4] was 1 of 6.

With `O=C1OC2C(O1)C1(c3ccccc3)C(=O)C2(c2ccccc2)C(c2ccccc2)=C1c1ccccc1` (centres undefined) the survivor count [5] was 6 of 6 and the survivor count [4] was 6 of 6.

With `Cc1ccnc(N)c1N` the T/C (dose: 25.0 mg/kg/injection, schedule: Q01DX009 (ip), vehicle: other) was 128 % of control and the survivor count (dose: 50.0 mg/kg/injection, schedule: Q01DX009 (ip), vehicle: other) was 0 of 6.

In the case of `CCNc1nncs1`, the T/C (dose: 50.0 mg/kg/injection, schedule: Q01DX009 (ip), vehicle: saline) is reported as 128 % of control and the T/C (dose: 75.0 mg/kg/injection, schedule: Q01DX009 (ip), vehicle: saline) is reported as 149 % of control.

`CSCNc1ncnc2c1ncn2C1OC(CO)C(O)C1O` (centres undefined) was tested, and the survivor count (dose: 200.0 mg/kg/injection, schedule: Q04DX002 (ip), vehicle: saline with Tween-80) was 3 of 6 and the survivor count (dose: 400.0 mg/kg/injection, schedule: Q04DX002 (ip), vehicle: saline with Tween-80) was 1 of 6.
